Results: publication PMC4542127
These are yes or no findings as the source states them, for the method shown. Binding seen in cells or lysates may run through a third protein. Some entries that bind do so weakly or less than the wild type.

Sequences of proteins named here, by UniProt entry; tags and fusion partners are left off.
UniProt P53667: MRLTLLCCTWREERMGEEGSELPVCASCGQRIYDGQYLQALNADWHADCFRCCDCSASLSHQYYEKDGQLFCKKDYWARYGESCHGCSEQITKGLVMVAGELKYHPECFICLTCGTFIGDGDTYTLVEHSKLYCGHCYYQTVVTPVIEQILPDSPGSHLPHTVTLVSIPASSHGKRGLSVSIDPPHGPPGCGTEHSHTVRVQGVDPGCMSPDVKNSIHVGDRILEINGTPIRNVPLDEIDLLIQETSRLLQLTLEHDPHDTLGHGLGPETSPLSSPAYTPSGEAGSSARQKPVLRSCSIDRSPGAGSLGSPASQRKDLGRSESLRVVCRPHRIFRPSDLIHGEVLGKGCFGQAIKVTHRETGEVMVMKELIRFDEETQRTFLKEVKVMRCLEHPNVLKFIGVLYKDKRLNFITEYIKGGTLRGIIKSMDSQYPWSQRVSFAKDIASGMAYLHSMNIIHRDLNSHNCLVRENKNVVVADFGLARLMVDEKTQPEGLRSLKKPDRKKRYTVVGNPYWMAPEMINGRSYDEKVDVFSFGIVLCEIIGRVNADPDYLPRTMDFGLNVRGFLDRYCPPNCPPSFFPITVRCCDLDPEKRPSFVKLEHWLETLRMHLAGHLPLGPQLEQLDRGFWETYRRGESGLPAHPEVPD

Target: T1, p57 (human (endogenous in BEL7402 and SMMC7721)) (UniProt P49918)
T1 sequence: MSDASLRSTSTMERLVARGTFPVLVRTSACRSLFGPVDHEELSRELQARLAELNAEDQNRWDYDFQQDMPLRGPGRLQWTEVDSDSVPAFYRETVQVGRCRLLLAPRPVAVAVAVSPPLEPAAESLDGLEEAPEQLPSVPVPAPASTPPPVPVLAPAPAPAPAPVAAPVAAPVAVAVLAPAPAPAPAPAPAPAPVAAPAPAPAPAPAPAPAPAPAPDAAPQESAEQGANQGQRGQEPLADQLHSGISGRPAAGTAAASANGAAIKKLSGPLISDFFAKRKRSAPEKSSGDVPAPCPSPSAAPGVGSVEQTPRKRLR
Assay: co-IP; anti-p57 antibody on Dynabeads protein G incubated with hepatoma cell lysate (0.1 % NP-40 lysis buffer, 50 mM Tris pH 7.4, 250 mM NaCl, 5 mM EDTA) 10 min at room temperature; washed with PBS; immunoblot with anti-LIMK1; cells stably transfected with shNC or shp57 (p57 knock-down)

binding: binds
Substance: LIM domain kinase 1 (from UniProt P53667 1-647) (enzyme)
